# Results taken from paper PMC7492282.
# Protein sequences, listed by entry. Tags and fused reporters are not part of them.
# UniProt Q93009: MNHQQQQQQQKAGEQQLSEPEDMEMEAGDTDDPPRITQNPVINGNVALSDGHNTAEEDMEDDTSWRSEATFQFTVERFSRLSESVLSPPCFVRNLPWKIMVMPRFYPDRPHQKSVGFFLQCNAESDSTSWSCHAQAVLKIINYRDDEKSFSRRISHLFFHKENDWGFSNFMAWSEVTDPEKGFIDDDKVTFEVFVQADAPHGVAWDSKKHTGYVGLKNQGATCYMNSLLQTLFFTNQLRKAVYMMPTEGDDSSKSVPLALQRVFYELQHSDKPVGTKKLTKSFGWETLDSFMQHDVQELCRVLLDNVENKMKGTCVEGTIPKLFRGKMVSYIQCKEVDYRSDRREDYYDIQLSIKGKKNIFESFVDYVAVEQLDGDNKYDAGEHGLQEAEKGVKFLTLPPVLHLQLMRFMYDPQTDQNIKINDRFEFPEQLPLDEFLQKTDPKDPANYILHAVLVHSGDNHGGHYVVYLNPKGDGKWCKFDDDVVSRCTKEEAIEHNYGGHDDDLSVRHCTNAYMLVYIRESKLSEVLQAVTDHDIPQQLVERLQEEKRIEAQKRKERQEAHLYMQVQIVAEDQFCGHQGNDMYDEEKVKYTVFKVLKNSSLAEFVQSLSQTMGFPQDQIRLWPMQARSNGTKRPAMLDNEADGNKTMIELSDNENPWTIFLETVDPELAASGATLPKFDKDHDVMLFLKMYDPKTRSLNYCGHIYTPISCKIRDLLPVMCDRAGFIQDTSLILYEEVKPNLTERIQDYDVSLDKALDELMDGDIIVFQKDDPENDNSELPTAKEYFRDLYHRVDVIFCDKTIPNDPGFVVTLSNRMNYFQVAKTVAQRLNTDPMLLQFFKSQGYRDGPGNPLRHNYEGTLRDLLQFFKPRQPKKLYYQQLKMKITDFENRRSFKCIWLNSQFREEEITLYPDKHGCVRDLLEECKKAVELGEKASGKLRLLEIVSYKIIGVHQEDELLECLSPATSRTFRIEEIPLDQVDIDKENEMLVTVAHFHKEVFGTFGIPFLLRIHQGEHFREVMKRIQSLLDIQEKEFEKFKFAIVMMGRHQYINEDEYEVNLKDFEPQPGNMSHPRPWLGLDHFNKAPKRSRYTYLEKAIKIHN
# UniProt P35222: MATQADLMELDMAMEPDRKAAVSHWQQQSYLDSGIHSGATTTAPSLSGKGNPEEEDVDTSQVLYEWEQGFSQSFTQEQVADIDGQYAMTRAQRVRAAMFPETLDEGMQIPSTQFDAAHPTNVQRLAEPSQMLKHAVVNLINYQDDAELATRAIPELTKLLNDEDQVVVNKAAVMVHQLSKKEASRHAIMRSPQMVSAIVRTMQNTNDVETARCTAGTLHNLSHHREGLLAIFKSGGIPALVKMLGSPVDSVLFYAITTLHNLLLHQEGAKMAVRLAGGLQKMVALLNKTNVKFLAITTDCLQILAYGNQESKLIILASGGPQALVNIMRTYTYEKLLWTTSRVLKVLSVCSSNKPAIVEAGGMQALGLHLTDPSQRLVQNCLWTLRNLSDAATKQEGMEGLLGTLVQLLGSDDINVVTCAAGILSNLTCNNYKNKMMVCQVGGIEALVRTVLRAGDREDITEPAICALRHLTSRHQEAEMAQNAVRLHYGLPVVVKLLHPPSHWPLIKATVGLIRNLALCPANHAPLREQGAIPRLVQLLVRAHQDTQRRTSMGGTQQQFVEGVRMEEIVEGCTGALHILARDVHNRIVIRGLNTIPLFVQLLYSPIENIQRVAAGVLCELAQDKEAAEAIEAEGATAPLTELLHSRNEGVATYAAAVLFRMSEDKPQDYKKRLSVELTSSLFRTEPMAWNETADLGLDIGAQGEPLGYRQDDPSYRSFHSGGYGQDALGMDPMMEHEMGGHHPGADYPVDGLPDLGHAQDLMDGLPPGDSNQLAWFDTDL
# Results are given in words; binding and its absence hold for the method and conditions named. In cells and extracts the contact can be indirect. Some binding calls cover weakened binding; strength is not graded here.
# Experiments:
# [1] = biological target: T1, WD repeat-containing protein 1 (human (endogenous in PANC1 and AsPC1)) (UniProt O75083); test: co-IP; lysates of PANC1 and AsPC1 cells in IP lysis buffer, pre-cleared with Protein G-agarose, primary antibodies 2 h at 4 °C, Protein G-agarose overnight at 4 °C, washed three times with 1×PBS, Western blotting; USP7 with β-Catenin in sh-Ctrl and sh-WDR1-1 cells
# T1 sequence: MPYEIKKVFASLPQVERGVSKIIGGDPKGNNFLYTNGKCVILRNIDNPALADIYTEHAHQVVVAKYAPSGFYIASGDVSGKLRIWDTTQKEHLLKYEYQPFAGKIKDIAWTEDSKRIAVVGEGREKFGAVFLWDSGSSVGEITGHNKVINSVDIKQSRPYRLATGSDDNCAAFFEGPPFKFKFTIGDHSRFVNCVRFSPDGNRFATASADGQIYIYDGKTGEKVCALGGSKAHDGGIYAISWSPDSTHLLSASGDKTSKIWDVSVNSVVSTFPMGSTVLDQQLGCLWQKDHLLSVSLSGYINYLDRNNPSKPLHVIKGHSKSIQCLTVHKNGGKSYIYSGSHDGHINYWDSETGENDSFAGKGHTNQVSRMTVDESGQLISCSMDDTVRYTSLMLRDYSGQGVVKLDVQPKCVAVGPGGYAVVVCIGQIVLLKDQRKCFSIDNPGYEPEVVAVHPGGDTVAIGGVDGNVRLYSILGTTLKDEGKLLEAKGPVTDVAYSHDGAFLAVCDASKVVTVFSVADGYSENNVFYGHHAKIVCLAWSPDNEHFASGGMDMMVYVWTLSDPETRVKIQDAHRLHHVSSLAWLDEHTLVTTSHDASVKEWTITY
# [2] = biological target: T1, WD repeat-containing protein 1 (human (endogenous in PANC1 and AsPC1)); test: proximity ligation; in situ PLA in PANC1 and AsPC1 cells fixed with 4% formaldehyde and permeabilised with 0.05% Triton X-100; primary antibodies against WDR1 and USP7 from two different species
binding [1],binding [2],Substance
binds,binds,USP7 (from UniProt Q93009 1-1102) (enzyme)
binds,,β-Catenin (from UniProt P35222 1-781)
